Measurements published in US20250101023A1, “HETEROARYL DERIVATIVE AND USES THEREOF” (IUCF-HYU (INDUSTRY-UNIVERSITY COOPERATION FOUNDATION …, priority 2022, published 2025).
The match of structure and compound is tentative.

Amino acid sequences for entries named in this document (tags omitted).
UniProt Q9NYV4, whole entry: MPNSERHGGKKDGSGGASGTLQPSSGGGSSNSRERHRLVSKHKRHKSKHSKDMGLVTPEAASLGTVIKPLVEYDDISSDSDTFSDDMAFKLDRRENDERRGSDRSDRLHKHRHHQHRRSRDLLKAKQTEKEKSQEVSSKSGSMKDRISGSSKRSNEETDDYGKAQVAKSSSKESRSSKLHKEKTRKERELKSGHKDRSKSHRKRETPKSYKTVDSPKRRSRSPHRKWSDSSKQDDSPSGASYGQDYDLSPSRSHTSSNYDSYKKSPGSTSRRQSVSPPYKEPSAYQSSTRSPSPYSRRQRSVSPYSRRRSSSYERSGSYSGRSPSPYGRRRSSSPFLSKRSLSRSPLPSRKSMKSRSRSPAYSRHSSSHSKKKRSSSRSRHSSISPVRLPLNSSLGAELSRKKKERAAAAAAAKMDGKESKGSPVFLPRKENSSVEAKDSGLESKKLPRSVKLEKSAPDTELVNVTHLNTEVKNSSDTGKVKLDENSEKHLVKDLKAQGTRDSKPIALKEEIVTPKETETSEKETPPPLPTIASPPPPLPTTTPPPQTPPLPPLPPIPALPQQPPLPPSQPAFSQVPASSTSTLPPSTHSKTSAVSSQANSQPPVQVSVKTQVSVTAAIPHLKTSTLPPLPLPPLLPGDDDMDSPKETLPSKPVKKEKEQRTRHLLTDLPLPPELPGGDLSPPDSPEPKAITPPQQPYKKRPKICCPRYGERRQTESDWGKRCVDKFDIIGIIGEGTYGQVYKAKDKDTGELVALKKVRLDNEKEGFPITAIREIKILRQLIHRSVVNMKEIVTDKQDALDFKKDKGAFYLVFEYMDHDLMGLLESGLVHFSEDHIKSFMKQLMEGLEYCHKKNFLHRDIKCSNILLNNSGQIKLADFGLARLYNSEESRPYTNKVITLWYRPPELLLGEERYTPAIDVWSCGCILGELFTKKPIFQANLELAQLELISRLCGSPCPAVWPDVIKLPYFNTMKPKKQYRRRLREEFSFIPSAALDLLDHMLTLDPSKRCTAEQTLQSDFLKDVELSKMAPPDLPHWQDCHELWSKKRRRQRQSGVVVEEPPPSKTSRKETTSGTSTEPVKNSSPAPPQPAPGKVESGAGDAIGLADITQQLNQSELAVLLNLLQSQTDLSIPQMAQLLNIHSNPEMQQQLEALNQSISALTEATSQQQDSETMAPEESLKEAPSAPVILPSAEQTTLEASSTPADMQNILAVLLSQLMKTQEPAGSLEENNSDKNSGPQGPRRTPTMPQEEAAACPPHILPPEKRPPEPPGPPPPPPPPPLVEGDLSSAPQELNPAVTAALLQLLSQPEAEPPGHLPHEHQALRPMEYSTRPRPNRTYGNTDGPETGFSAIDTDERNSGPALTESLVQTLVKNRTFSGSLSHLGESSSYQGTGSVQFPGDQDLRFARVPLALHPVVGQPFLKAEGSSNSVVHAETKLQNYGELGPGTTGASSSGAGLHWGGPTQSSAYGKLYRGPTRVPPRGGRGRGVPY
UniProt O75909, whole entry partner: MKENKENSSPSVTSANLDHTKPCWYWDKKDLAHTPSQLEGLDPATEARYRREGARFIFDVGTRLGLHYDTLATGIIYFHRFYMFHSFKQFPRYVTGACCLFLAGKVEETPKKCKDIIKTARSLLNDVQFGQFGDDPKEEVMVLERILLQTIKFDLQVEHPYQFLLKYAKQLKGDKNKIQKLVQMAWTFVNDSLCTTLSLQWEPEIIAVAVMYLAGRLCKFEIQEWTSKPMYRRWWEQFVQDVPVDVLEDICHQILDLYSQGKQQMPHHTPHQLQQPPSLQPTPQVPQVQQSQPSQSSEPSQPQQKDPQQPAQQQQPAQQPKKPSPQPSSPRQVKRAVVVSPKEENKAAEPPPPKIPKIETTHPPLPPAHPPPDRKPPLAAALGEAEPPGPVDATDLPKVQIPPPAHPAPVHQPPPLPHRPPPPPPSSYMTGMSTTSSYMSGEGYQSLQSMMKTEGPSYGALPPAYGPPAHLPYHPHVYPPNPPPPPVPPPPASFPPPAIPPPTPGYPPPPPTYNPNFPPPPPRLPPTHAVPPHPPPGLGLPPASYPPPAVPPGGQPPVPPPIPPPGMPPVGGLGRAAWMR

Target: CDK12/CyclinK (Homo sapiens (Human), UniProt Q9NYV4)
Assay: CDK12/cyclinK enzyme activity
Assay type: biochemical
Conditions: read-out: CDK12/CyclinK (IC50/μM); in vitro

Work on `CC(C)n1cnc2c(NCc3ccc(-c4ccccn4)cn3)nc(-c3cccc(O)c3)nc21` yielded an IC50 of 0.713 µM.
